PubChem BioAssay AID1159584, Peter MacCallum Cancer Centre | 2016
Test: 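Genes that CDH1-null MCF10A cells selectively depend on to survive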 (primary screen). Cell system: human MCF10A breast epithelial cells, parental and CDH1-null. Reagent: siRNA against human genes. Measured: 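Cell viability by CellTiter-Glo ATP luminescence, each line scaled to the mean of mock wells across plates, then CDH1-null over parental ratio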. Scale: CDH1-null / parental viability ratio: higher = CDH1-null cells survive relatively better than parental; CDH1-null viability vs mock: higher = more viable CDH1-null cells; parental viability vs mock: higher = more viable parental cells.
The deposit covers about 18,000 reagents; below is a part drawn at random. The record does not give: the amount of reagent, the time to read-out.

| gene symbol | CDH1-null / parental viability ratio | CDH1-null viability vs mock (fraction of mock) | parental viability vs mock (fraction of mock) |
| --- | --- | --- | --- |
| ARL17B (ARF like GTPase 17B) | 0.93 | 0.7 | 0.75 |
| ATG4B (autophagy related 4B cysteine peptidase) | 1.1 | 0.8 | 0.73 |
| IZUMO1 (izumo sperm-oocyte fusion 1) | 0.9 | 0.83 | 0.92 |
| EPS15L1 (epidermal growth factor receptor pathway substrate 15 like 1) | 1.02 | 0.88 | 0.86 |
| SCGB1D1 (secretoglobin family 1D member 1) | 0.94 | 0.58 | 0.62 |
| TMSB4XP8 (TMSB4X pseudogene 8) | 0.99 | 1.02 | 1.03 |
| FZD10 (frizzled class receptor 10) | 0.86 | 0.8 | 0.93 |
| PMM2 (phosphomannomutase 2) | 0.87 | 0.73 | 0.84 |
| ATF7IP (activating transcription factor 7 interacting protein) | 0.87 | 0.7 | 0.8 |
| NCAPG2 (non-SMC condensin II complex subunit G2) | 1.27 | 0.7 | 0.55 |
| LEKR1 (leucine, glutamate and lysine rich 1) | 1.07 | 0.64 | 0.6 |
| ABHD11 (abhydrolase domain containing 11) | 1.04 | 0.98 | 0.94 |
| PRDM7 (PR/SET domain 7) | 1.19 | 1 | 0.84 |
| TIGD1 (tigger transposable element derived 1) | 1.12 | 0.9 | 0.8 |
| RAET1E (retinoic acid early transcript 1E) | 0.98 | 1.11 | 1.13 |
| N4BP2 (NEDD4 binding protein 2) | 0.85 | 0.78 | 0.92 |
| MTHFD1 | 0.95 | 0.8 | 0.84 |
| TULP3 (TUB like protein 3) | 0.86 | 0.6 | 0.7 |
| LRRK2 (leucine rich repeat kinase 2) | 1.06 | 1.03 | 0.97 |
| PGM3 (phosphoglucomutase 3) | 1 | 0.92 | 0.92 |
| REDIC1 (regulator of DNA class I crossover intermediates 1) | 1.13 | 0.77 | 0.68 |
| ZNF586 (zinc finger protein 586) | 1.41 | 0.52 | 0.37 |
| GGA3 | 0.81 | 0.57 | 0.7 |
| H2AC19 (H2A clustered histone 19) | 0.65 | 0.44 | 0.68 |
| ZNF470 (zinc finger protein 470) | 0.91 | 0.71 | 0.78 |
| HSD11B1 (hydroxysteroid 11-beta dehydrogenase 1) | 1.02 | 1 | 0.98 |
| KRT4 (keratin 4) | 1.14 | 0.74 | 0.65 |
| SEPHS1 (selenophosphate synthetase 1) | 0.69 | 0.53 | 0.77 |

4 consecutive reagents from above, quoted:
| gene symbol | CDH1-null / parental viability ratio | CDH1-null viability vs mock (fraction of mock) | parental viability vs mock (fraction of mock) |
| --- | --- | --- | --- |
| ATF7IP (activating transcription factor 7 interacting protein) | 0.87 | 0.7 | 0.8 |
| NCAPG2 (non-SMC condensin II complex subunit G2) | 1.27 | 0.7 | 0.55 |
| LEKR1 (leucine, glutamate and lysine rich 1) | 1.07 | 0.64 | 0.6 |
| ABHD11 (abhydrolase domain containing 11) | 1.04 | 0.98 | 0.94 |
